Values quoted from earlier work, collected in patent US20140308657A1, “SERINE PROTEASE INHIBITOR KAZAL ANTIBODIES” (priority 2010, published 2014).
At least one structure is not confirmed: it was looked up by name or label, or the drawing left a doubt. Where a SMILES comes first, the peptide text is derived from it. The star is where a group is joined. Cbz = O=C(OCc1ccccc1)*; CH2F = FC*

Details: cited from earlier work

CC(NC(=O)C(NC(=O)OCc1ccccc1)C(C)C)C(=O)NC(CC(=O)O)C(=O)CF (stereo not drawn) [Z-VAD] (Cbz-Val-Ala-Asp-CH2F; configuration not given here)
block of BFA/CHX induced apoptosis: unable to be blocked
